Source: US20200384107A1
Results are given in words; binding and its absence hold for the method and conditions named. Some entries that bind do so weakly or less than the wild type.

Amino acid sequences for entries named in this document (tags omitted). A change or cut given only in a name is not applied to a line headed by its entry. Chains listed by the source or under a name are the forms on record and can include a tag or linker.
rhesus CD40, recombinant (F6SNI1, form named): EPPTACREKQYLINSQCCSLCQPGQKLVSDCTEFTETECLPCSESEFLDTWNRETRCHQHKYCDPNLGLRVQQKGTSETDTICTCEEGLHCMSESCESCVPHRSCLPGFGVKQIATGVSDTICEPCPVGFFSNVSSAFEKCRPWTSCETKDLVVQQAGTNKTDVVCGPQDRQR
UniProt P25942: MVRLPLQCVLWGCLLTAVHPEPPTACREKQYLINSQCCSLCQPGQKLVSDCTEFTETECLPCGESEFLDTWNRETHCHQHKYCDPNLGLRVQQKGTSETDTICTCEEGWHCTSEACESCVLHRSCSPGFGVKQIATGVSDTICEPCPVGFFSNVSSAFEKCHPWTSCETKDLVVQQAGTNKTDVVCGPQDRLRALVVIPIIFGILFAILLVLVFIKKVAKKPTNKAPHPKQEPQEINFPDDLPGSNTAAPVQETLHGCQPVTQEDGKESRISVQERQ

What was measured:
[1] = biological target: rhesus CD40 on rhesus macaque B cells (CD20+ cells of PBMCs or blood) (rhesus) (UniProt F6SNI1); test: flow cytometry of blood of untreated control rhesus monkeys, day 28, stained with fluorescently labeled 2C10 and anti-CD20
[2] = biological target: rhesus CD40 on rhesus macaque B cells (CD20+ cells of PBMCs or blood) (rhesus) (UniProt F6SNI1); test: flow cytometry of rhesus PBMCs stained with fluorochrome-conjugated 2C10 and an anti-CD20 antibody
[3] = biological target: rhesus CD40 on rhesus macaque B cells (CD20+ cells of PBMCs or blood) (rhesus) (UniProt F6SNI1); test: flow cytometry, fluorochrome-conjugated 2C10 and anti-CD20 on PBMCs
[4] = biological target: rhesus CD40, recombinant (rhesus) (UniProt F6SNI1); test: ELISA, CD40 adsorbed to plates, goat anti-mouse IgG-HRP
[5] = biological target: rhesus CD40, recombinant (rhesus) (UniProt F6SNI1); test: ELISA, rhesus CD40 adsorbed to the plate, detection with goat anti-mouse IgG-HRP
[6] = biological target: rhesus CD40 on rhesus macaque B cells (CD20+ cells of PBMCs or blood) (rhesus) (UniProt F6SNI1); test: flow cytometry on PBMCs
[7] = biological target: rhesus CD40 on rhesus macaque B cells (CD20+ cells of PBMCs or blood) (rhesus) (UniProt F6SNI1); test: receptor occupancy on blood B cells of treated rhesus monkeys, flow cytometry
[8] = biological target: rhesus CD40 on rhesus macaque B cells (CD20+ cells of PBMCs or blood) (rhesus) (UniProt F6SNI1); test: receptor occupancy on blood B cells of treated rhesus monkeys
[9] = biological target: rhesus CD40 on rhesus macaque B cells (CD20+ cells of PBMCs or blood) (rhesus) (UniProt F6SNI1); test: receptor occupancy on blood B cells of treated rhesus monkeys (10 or 25 mg/kg)
[10] = biological target: rhesus CD40 on rhesus macaque B cells (CD20+ cells of PBMCs or blood) (rhesus) (UniProt F6SNI1); test: receptor occupancy by flow cytometry: blood of rhesus monkeys 28 days after one intravenous dose of h2C10, stained with fluorescently labeled 2C10 and anti-CD20
[11] = biological target: rhesus CD40 on rhesus macaque B cells (CD20+ cells of PBMCs or blood) (rhesus) (UniProt F6SNI1); test: receptor occupancy on blood B cells of treated rhesus monkeys, flow cytometry with labeled 2C10
[12] = biological target: human CD40-MBP fusion (human) (UniProt P25942+P0AEX9); test: SPR, BIACore 3000, h2C10 amine-coupled to a CM5 chip, CD40-MBP in solution

Measured: binding

B1: 2C10 (murine anti-CD40 monoclonal antibody) (antibody, V domains shown)
VH: QVQLQQSGAELAKPGASVKMSCKASGYTFTNYWMHWVKQRPGQGLEWIGYINPSNDYTKYNQKFKDKATLTADKSSNTAYMQLGSLTSEDSAVYYCARQGFPYWGQGTLVTVSA
VL: QIVLTQSPAIMSASPGEKVTMTCSASSSVSYMHWYHQRSGTSPKRWIYDTSKLASGVPARFSGSGSGTSYSLTISSMEAEDAATYYCHQLSSDPFTFGSGTKLEIK
binds: [1] | [2] | [3] | [4] | [5] | [6]

B2: humanized 2C10 in the stabilized IgG4 (S241P) format (antibody, V domains shown)
VH: QVQLVQSGAEVKKPGASVKVSCKASGYTFTNYWMHWVRQAPGQRLEWIGYINPSNDYTKYNQKFKDRATLTADKSANTAYMELSSLRSEDTAVYYCARQGFPYWGQGTLVTVSS
VL: EIVLTQSPATLSLSPGERATLSCSASSSVSYMHWYQQKPGQAPRRWIYDTSKLASGVPARFSGSGSGTDYTLTISSLEPEDFAVYYCHQLSSDPFTFGGGTKVEIKR
binds: [7] | [8] | [9] | [10] | [11]

B3: humanized 2C10, clone 2.189.2 (2C10_h3 + 2C10_l2) (antibody, V domains shown)
VH: B2 VH
VL: EIVLTQSPATLSLSPGERATLSCSASSSVSYMHWYQQKPGQAPRRWIYDTSKLASGVPARFSGSGSGTDYTLTISSLEPEDFAVYYCHQLSSDPFTFGGGTKVEIK
binds: [12]
